From patent US8883965B2 (Ferring B.V., priority 2006, dated 2014) come the findings set out here.

Data set [1] in a line: Fmoc solid-phase peptide synthesis; Tentagel-S-RAM; DIC/HOBt; DCC, PyBOP or DIC/HOBt. The note with it: whole synthesis, scale 0.1 mmol, acetate.
Data set [2] can be described thus: general procedure: Fmoc solid-phase peptide synthesis; Tentagel-S-RAM; DIC/HOBt; DCC, PyBOP or DIC/HOBt. The note with it: whole synthesis, analytical HPLC (Agilent 1100, Vydac C18), scale 0.1 mmol, acetate.

In data set [1], [Cha^2, Asn^4, Orn(i-Pr)^6]VT showed an isolated mass of 20.7 mg and an isolated yield of 20%. Also, the “final HPLC purity” value in data set [2] was 100%.
